Reference: PubChem BioAssay AID1259354 (Paczesny and Yang Labs, IUPUI and University of Michigan, 2018)
“And” between values parts separate entries of the source, which are not always exact repeats. Identical values can stand only once. About 1,800 (2.3%) of roughly 78,000 compounds were called active. Inconclusive results, whose numbers are uncertain, are shown with a selection of clear calls. Rule as the data show it: active = inhibition above about 30%; inconclusive = mostly about 10% to 28%; inactive = weaker than that.

Amino acid sequences for entries named in this document (tags omitted). A change or cut given only in a name is not applied to a line headed by its entry.
UniProt Q01638: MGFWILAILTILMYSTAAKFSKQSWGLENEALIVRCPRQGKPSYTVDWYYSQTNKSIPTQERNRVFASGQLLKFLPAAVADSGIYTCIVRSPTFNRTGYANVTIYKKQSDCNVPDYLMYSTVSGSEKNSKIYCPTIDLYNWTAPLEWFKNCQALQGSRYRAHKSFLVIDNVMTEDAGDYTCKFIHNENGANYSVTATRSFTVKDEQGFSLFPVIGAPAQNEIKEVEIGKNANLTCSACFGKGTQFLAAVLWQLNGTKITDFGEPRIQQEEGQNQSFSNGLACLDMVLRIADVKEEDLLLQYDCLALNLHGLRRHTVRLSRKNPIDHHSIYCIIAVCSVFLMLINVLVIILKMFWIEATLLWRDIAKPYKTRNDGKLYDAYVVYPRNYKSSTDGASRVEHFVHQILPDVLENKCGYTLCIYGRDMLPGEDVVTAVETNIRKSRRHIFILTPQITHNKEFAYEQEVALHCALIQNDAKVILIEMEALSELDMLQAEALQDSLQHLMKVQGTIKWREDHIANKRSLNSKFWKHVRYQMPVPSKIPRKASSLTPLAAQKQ

Target: Interleukin-1 receptor-like 1 (Homo sapiens) (UniProt Q01638)
Assay: inhibitors of human ST2 (IL1RL1) binding to IL-33, primary screen, biochemical, AlphaLISA (AID 1259354)
Conditions: AlphaLISA ST2-Fc/biotin-IL-33 interaction, 1 h; at 17 µM, hits give high values

| SMILES | inhibition |
| --- | --- |
| O=[N+]([O-])c1cc(CN2CCN(c3ccccc3)CC2)ccc1O | inconclusive: 16% |
| CC1N=C(c2ccccc2)c2ccccc2N(CC(=O)N2CCCC2)C1=O (stereo unspecified) | inactive |
| CN(C)CC(=O)Nc1ccc2n(c1=O)C[C@H]1C[C@@H]2CN(C(=O)c2ccccc2)C1 | inconclusive: 11% |
| N#Cc1ccccc1S(=O)(=O)N1C[C@@H]2C[C@H](C1)c1c(-c3ccccc3F)ccc(=O)n1C2 | inconclusive: 12% |
| CN(C)c1ccc(C(=O)NC[C@H]2C[C@@H]3CCN2C[C@@H]3c2cc(C3CCCCC3)nn2C)cc1 | inconclusive: 10% |
| NNC(=O)c1ccc(O)cc1 | inconclusive: 12% |
| COC(=O)[C@@H](N)CCCN=C(N)N[N+](=O)[O-] | inconclusive: 10% |
| CC[C@H]1CN2CC[C@H]1C[C@@H]2CNC(=S)Nc1ccc(Cl)cc1 | inconclusive: 11% |
| CC(=O)Nc1ccc(-c2ccc3n(c2=O)C[C@H]2C[C@@H]3CN(C(=O)c3ccncc3)C2)cc1 | inactive |
| COc1ccc(CCNCc2cccc(Cl)c2)cc1OC | inconclusive: 14% |
| COc1ccc(Cc2nccc3cc(OC)c(OC)cc23)cc1OC | inconclusive: 11% and inconclusive: 10% |
| C=CCOc1ccc(C2SCC(=O)Nc3c2c(=O)[nH]n3C2CCCCC2)cc1 (stereo unspecified) | inconclusive: 21% |
| CN(C)CC1(O)C2CN3CCN(C2)CC1(C)C3 (stereo unspecified) | inconclusive: 11% |
| COc1ccc(CN2CCN(c3ccc(Cl)cc3)CC2)cc1O | inconclusive: 18% |
| O=C(Nc1ccc(=O)n2c1[C@@H]1C[C@@H](CN(S(=O)(=O)c3ccccc3)C1)C2)c1cccnc1 | inconclusive: 11% |
| CNCCc1c[nH]c2ccc(O)cc12 | inconclusive: 13% |
| COCCNC(=S)NC[C@H]1C[C@@H]2CCN1C[C@@H]2CN1CCSCC1 | inactive |
| C[C@@H]1CN(C(=O)c2cn(Cc3ccccn3)cc(C(=O)NC3CCCCCCC3)c2=O)C[C@H](C)O1 | inconclusive: 10% |
| CC1N=C(c2ccccc2)c2ccccc2N(CC(=O)Nc2ccccc2C(F)(F)F)C1=O (stereo unspecified) | inactive |

| SMILES | inhibition |
| --- | --- |
| C=CCN(C(=O)CN1C(=O)C(C)N=C(c2ccccc2)c2ccccc21)c1ccccc1 (stereo unspecified) | inconclusive: 15% |
| C=CCSCC(=O)N1CCN2CCNC(=O)C2C1 (stereo unspecified) | inconclusive: 11% |
| Cc1ccc(-c2cc(C(=O)N3C[C@@H]4C[C@H](C3)c3cccc(=O)n3C4)n[nH]2)o1 | inconclusive: 19% |
| COc1ccccc1N1CCN(C[C@H]2CN3CC[C@H]2C[C@@H]3CNC(=O)NC(C)C)CC1 | inconclusive: 14% |
| O=C(Nc1ccc2n(c1=O)C[C@H]1C[C@@H]2CN(C(=O)c2ccccn2)C1)c1cnccn1 | inconclusive: 11% |
| CN(Cc1ccccc1)C[C@H]1CN2CC[C@H]1C[C@@H]2CNC(=S)NCCN1CCOCC1 | inconclusive: 16% |
| Cc1cc(NC(=O)c2cccn(Cc3ccc(C(F)(F)F)cc3)c2=O)no1 | inconclusive: 12% |
| N#Cc1cccc(-c2ccc3n(c2=O)C[C@H]2C[C@@H]3CN(C(=O)C3CCCCC3)C2)c1 | inactive |
| Cc1ccc2c(c1)N(C(C)C(=O)N1CCC3(CC1)OCCO3)C(=O)CO2 (stereo unspecified) | inconclusive: 10% |
| O=C(O)c1cnc(N2CCC3(CCCNC3)C2)c(Cl)c1 (stereo unspecified) | inconclusive: 16% |
| CCOc1ccc(NC(=O)CN2C(=O)C(C)N=C(c3ccccc3)c3ccccc32)cc1 (stereo unspecified) | inactive |
| CN1CCN(C[C@H]2CN3CC[C@H]2C[C@@H]3CNC(=S)NCc2ccco2)CC1 | inactive |
| O=C1CCCN1CC#CCN1CCCC1 | inconclusive: 24% |
| CN(C)C(=O)[C@H]1CN2CCC1C[C@@H]2Cn1cc(CCO)nn1 (stereo partly specified) | inconclusive: 16% |
| O=C1OC(c2ccc(Br)cc2)=N/C1=C\N1CC2CC(C1)c1cccc(=O)n1C2 (stereo unspecified) | inconclusive: 15% |
| O=c1c(-c2cccs2)ccc2n1C[C@H]1C[C@@H]2CN(Cc2cc3ccccc3o2)C1 | inconclusive: 10% |
| Cc1cccc(N2CCN(Cc3cccc(Cl)c3)CC2)c1C | inconclusive: 21% |
| Oc1ccc(CN2CCN(c3cccc(Cl)c3)CC2)cc1 | inconclusive: 10% |
| CCCS(=O)(=O)Nc1ccc(=O)n2c1[C@@H]1C[C@@H](CN(C(=O)c3ccc(F)cc3)C1)C2 | inconclusive: 11% |

| SMILES | inhibition |
| --- | --- |
| CCCCc1cn(C[C@H]2CC3CCN2C[C@@H]3C(=O)NCCOC)nn1 (stereo partly specified) | inconclusive: 12% |
| CC(N)Cc1c[nH]c2ccc(O)cc12 (stereo unspecified) | inconclusive: 10% |
| COCCC(=O)N1C[C@@H]2C[C@H](C1)c1ccc(NC(=O)c3ccc(F)cc3)c(=O)n1C2 | inconclusive: 16% |
| CSCC(=O)N1C[C@@H]2C[C@H](C1)c1ccc(-c3ccccc3CN3CCOCC3)c(=O)n1C2 | inactive |
| O=c1c2ccccc2nc(-c2ccccc2)n1-c1ccccc1 | inactive |
| O=[N+]([O-])/C=C/c1c[nH]c2ccccc12 | inconclusive: 13% |
| COc1ccc(CN2CCN(c3ccccc3)CC2)c(OC)c1C | inconclusive: 17% |
| N[C@H](CCCCCP(=O)(O)O)C(=O)O | inconclusive: 12% |
| NC(Cc1cc(O)c(O)cc1O)C(=O)O (stereo unspecified) | active: 95% |
| COc1ccc(-c2cc([C@H]3CN4CC[C@H]3C[C@@H]4CNS(=O)(=O)c3cccs3)n(C)n2)cc1 | inconclusive: 15% |
| CC1(C)CCC[C@]2(C)c3cc(O)c(O)cc3C(=O)CC12 (stereo partly specified) | inconclusive: 15% |
| COCC(=O)NC[C@H]1C[C@@H]2CCN1C[C@@H]2CN1CCSCC1 | inconclusive: 12% |
| COc1ccccc1CN1CCN(Cc2ccccc2Cl)CC1 | inconclusive: 10% |
| COc1ccc(OC)c(S(=O)(=O)NC[C@H]2C[C@@H]3CCN2C[C@@H]3c2cc(C3CCCC3)nn2C)c1 | inconclusive: 11% |
| Cc1nc(-c2cccs2)cc([C@H]2CN3CC[C@H]2C[C@@H]3CNC(=O)N2CCOCC2)n1 | inconclusive: 17% |
| O=C1NC(=O)C(=Cc2cn(CCOc3ccc4c(c3)OCO4)c3ccccc23)C(=O)N1 | active: 35% |
| c1cnc2c(c1)CN(Cc1cc3n(n1)CCCNC3)CC2 | inconclusive: 11% |
| CC(C)CN1CCN(Cc2ccccc2OC(F)F)CC1CCO (stereo unspecified) | inconclusive: 16% |
